Reference: publication PMC12029333
No constants are given. Whether binding was seen depends on the method and setting. In cells and extracts the contact can be indirect. Here binding means that the protein was enriched with, or labelled near, the bait; the list need not be complete. Sequences can lack the tags named with a protein. Blank lines part the entries; values can stand above or below the binder they belong to.

Target: T1, GST-PrkC (Serine/threonine-protein kinase PrkC) (Bacillus subtilis str. 168) (UniProt O34507)
T1 sequence: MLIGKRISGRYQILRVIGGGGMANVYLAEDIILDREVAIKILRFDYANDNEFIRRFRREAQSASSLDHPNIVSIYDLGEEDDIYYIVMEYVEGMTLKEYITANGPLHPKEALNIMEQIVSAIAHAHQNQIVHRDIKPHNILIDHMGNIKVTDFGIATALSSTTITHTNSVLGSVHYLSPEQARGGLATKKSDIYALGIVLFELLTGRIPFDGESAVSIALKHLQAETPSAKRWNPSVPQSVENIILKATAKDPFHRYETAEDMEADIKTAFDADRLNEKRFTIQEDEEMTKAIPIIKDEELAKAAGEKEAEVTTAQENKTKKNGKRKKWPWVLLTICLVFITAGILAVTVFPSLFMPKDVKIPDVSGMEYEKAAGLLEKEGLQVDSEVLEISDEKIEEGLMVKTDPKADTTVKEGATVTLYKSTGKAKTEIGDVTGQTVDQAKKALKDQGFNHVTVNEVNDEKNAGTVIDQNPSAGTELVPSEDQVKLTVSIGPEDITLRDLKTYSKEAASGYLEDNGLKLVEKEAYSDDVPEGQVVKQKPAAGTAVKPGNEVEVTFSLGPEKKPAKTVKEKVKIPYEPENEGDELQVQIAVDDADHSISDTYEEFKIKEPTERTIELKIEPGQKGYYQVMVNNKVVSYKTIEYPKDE
Assay: affinity purification with mass spectrometry; GST-PrkC on glutathione resin incubated with B. subtilis spore lysate at 4 °C; resin washed; bound proteins eluted with 20 mM reduced glutathione; eluate digested with trypsin and analysed by LC-MS/MS; hits filtered at 1% FDR, >=2 unique peptides; only the target purified

binding: binds
B1: Tryptophan RNA-binding attenuator protein inhibitory protein (protein, UniProt O31466 1-53)
chain: MVIATDDLEVACPKCERAGEIEGTPCPACSGKGVILTAQGYTLLDFIQKHLNK

binding: binds
B2: Iron-sulfur cluster assembly protein SufD (protein, UniProt O32165 1-437)
chain: MTLGTKLSVDQEYLKSFSEKHQEPAWLKNLRLQALEQAEDLPMPKPDKTKITNWNFTNFAKHTVDNEPLSSLEDLTDEVKALIDIENEDKTLYVQRDQTPAHLSLSQELKDKGVIFTDILTAAREHSDLVEKYFMKDGVKVDEHKLTALHAALVNGGAFLYVPKNVQVETPVQAVYVHESNDTALFNHVLIVAEDHSSVTYVENYISTVNPKDAVFNIISEVITGDNASVTYGAVDNLSSGVTTYVNRRGAARGRDSKIEWALGLMNDGDTISENTTNLYGDGTYGDTKTVVVGRGEQTENFTTQIIHFGKASEGYILKHGVMKDSASSIFNGIGKIEHGASKANAEQESRVLMLSEKARGDANPILLIDEDDVTAGHAASVGRVDPIQLYYLMSRGIPKEEAERLVIYGFLAPVVNELPIEGVKKQLVSVIERKVK

binding: binds
B3: Stage V sporulation protein AD (protein, UniProt P40869 1-338)
chain: MKLTGKQTWVFEHPIFVNSAGTAAGPKEKDGPLGSLFDKTYDEMHCNQKSWEMAERQLMEDAVNVALQKNNLTKDDIDLLLAGDLLNQNVTANYVARHLKIPFLCMFGACSTSMETVAVASALVDGGFAKRALAATSSHNATAERQFRYPTEYGGQKPDTATSTVTGSGAVVISQTPGDIQITSATVGKVSDLGITDPFDMGSAMAPAAADTIKQHFKDLNRTADDYDLILTGDLSGVGSPIVKDILKEDGYPVGTKHDDCGLLIYTPDQQVFAGGSGCACSAVVTYSHIFKQLREGKLNRVFVVATGALLSPTMIQQKETIPTIAHGVVFERAGGAS

binding: binds
B4: Nuclease SbcCD subunit C (protein, UniProt O06714 1-1130)
chain: MKPIALSIKGLHSFREEQTIDFEGLSGAGVFGIFGPTGSGKSSILDAMTLALYGKVERAANNTHGILNHAEDTLSVSFTFALQTNHQISYKVERVFKRTDEMKVKTALCRFIEIKDEHTVLADKASEVNKRVEELLGLTIDDFTRAVVLPQGKFAEFLSLKGAERRHMLQRLFNLEQYGDRLVKKLRRQAQEANARKNEMLAEQSGLGEASSEAVEQAEKVLEQAEARLEAMRKNRDQAKERFTEHQEIWNVQKEKSTYEEEEKRLAEEQPHIDSMQKRLLEAETAAALKPYADRYAEAIQHEEQAEKEQTLAQKDLADRTAFFQQKHEEYEAWRQHKSEKEPELLAKQEQLSRLQEIEIKLSEAKQEEERKKADLRQKEEALQSVMNELETVTDRLTRGQNRQTELKQQLKSLQVTSDERKSCQQAAEMALRIRQTEEQIKKEKKRSEELNLVLQKMNEEKNTLVQKTEAEENNIIQAYEAVQTVYHLVCETERSLTRMTEEARKSQHTLHLQREKARVALLTKELAQKLTAGKPCPVCGSTDHDPSASVHETYEADSHLEEDIKRTDVLLTEAAALSQEILSAKIMLEEQSARFIEQCPFLQTIQAQNLEAAASFEHQPVYEAFETAKFEWKRIKQDILSVKTRMAQMIGAYQESLKKAEQLNEKIGFEKREADRIESIISELQSSMDSSLNMFKEAFQNQSVDEAEKWQQAIEEKDRAAEECEKRIEKSIAFLAEHEAQKEKLRESGHRLEREKLELHYAAERIKSVIADYEHELGDYAKGDSIQIKLRSVQQDLKLLKEKEQSLYEELQSAQMKLNQAKSRASASELTLQEAKGRLEKAKAAWLEHTKNTSITRTEEVEQSLIPADELEKMKTGIDQFMDKLKQNAANLKRVAEILAGRALSESEWNETVAALQEAEDAFGAAIEEKGAAAKALAVIRDHHKRFNEIEAELKKWQMHIDRLDKLQAVFKGNTFVEFLAEEQLESVARDASARLSMLTRQRYAIEVDSEGGFVMRDDANGGVRRPVSSLSGGETFLTSLSLALALSAQIQLRGEYPLQFFFLDEGFGTLDQDLLDTVVTALEKLQSDNLAVGVISHVQELRARLPKKLIVHPAEPSGRGTRVSLELM

binding: binds
B5: Putative DNA recombinase (protein, UniProt P17867 1-500)
chain: MIAIYVRVSTEEQAIKGSSIDSQIEACIKKAGTKDVLKYADEGFSGELLERPALNRLREDASKGLISQVICYDPDRLSRKLMNQLIIDDELRKRNIPLIFVNGEYANSPEGQLFFAMRGAISEFEKAKIKERTSSGRLQKMKKGMIIKDSKLYGYKFVKEKRTLEILEEEAKIIRMIFNYFTDHKSPFFGRVNGIALHLTQMGVKTKKGAKVWHRQVVRQILMNSSYKGEHRQYKYDTEGSYVSKQAGNKSIIKIRPEEEQITVTIPAIVPAEQWDYAQELLGQSKRKHLSISPHNYLLSGLVRCGKCGNTMTGKKRKSHGKDYYVYTCRKNYSGAKDRGCGKEMSENKLNRHVWGEIFKFITNPQKYVSFKEAEQSNHLSDELELIEKEIEKTKKGRKRLLTLISLSDDDDLDIDEIKAQIIELQKKQNQLTEKCNEIQSKMKVLDDTSSSENALKRAIDYFQSIGADNLTLEDKKTIVNFIVKEVTIVDSDTIYIETY

binding: binds
B6: Spore coat polysaccharide biosynthesis protein SpsG (protein, UniProt P39627 1-339)
chain: MHVGIFADGGYEKGMGHVVRMKRLAEGLKQRCLITFYTNQDSEAFLHEEHWQVIVKPELQQHEFILREIKSKKLDLLLFDILGAPAELLKKIKTETDAKIVLFEEKNGKSIQYSDAVINGIYGDIRSRVYVQGNTRIYEGPDYLILHPAFQAAREDYTLKKDCRNILVALGGSDPKQLIFKVLAAADQVPDIKDKNMMFVMGSASPHQEAVRRRIEKKPQYKMIEQTNDMAGLMKQADAAIVAGGISLYEAICIGVPCLVLSQVEHQTATAKTFADQGAALDLGLGELVPDETLIYQMSRIMSSYPLRLSLHKGGRPLVDGKGIIRVTAILQDLYEQEI

binding: binds
B7: Putative aliphatic sulfonates transport permease protein SsuC (protein, UniProt P40401 1-276)
chain: MMKAEAAGSLPKTNAEAVRKKPGRKRYGWMKGLLLPAVIIAIWQVIGGLGVVSATVLPTPVTIVLTFKELILSGELFGHLQISIYRAALGFLLGAGLGLMIGILAGFSKRTELYLDPSLQMLRTVPHLAVTPLFILWFGFDEVSKILLIALGAFFPVYINTFNGIRGVDAKLFEVARVLEFKWHQQISKVILPAALPNILLGIRLSLGIAWLGLVVAELMGSSSGVGYMIMDARQFSQTNKVFAGIIIFAVVGKLTDSFVRLLERKLLKWRNSYEG

binding: binds
B8: Transcription termination factor Rho (protein, UniProt Q03222 1-427)
chain: MKDVSISSLENMKLKELYELARHYKISYYSKLTKKELIFAILKANAEQEDLLFMEGVLEIIQSEGFGFLRPINYSPSSEDIYISASQIRRFDLRNGDKVSGKVRPPKENERYYGLLHVEAVNGDDPESAKERVHFPALTPLYPDRQMVLETKPNFLSTRIMDMMAPVGFGQRGLIVAPPKAGKTMLLKEIANSITANQPEAELIVLLIDERPEEVTDIERSVAGDVVSSTFDEVPENHIKVAELVLERAMRLVEHKKDVIILMDSITRLARAYNLVIPPSGRTLSGGIDPAAFHRPKRFFGAARNIEEGGSLTILATALVDTGSRMDDVIYEEFKGTGNMELHLDRSLAERRIFPAIDIRRSGTRKEELLVPKEHLDRLWSIRKTMSDSPDFAEKFMRKMKKTKTNQEFFDILNQEWKQANLSSARR

binding: binds
B9: DNA translocase SpoIIIE (protein, UniProt P21458 1-787)
chain: MAKKKRKSRKKQAKQLNIKYELNGLLCIAISIIAILQLGVVGQTFIYLFRFFAGEWFILCLLGLLVLGVSLFWKKKTPSLLTRRKAGLYCIIASILLLSHVQLFKNLTHKGSIESASVVRNTWELFLMDMNGSSASPDLGGGMIGALLFAASHFLFASTGSQIMAIVMILIGMILVTGRSLQETLKKWMSPIGRFIKEQWLAFIDDMKSFKSNMQSSKKTKAPSKKQKPARKKQQMEPEPPDEEGDYETVSPLIHSEPIISSFSDRNEEEESPVIEKRAEPVSKPLQDIQPETGDQETVSAPPMTFTELENKDYEMPSLDLLADPKHTGQQADKKNIYENARKLERTFQSFGVKAKVTQVHLGPAVTKYEVYPDVGVKVSKIVNLSDDLALALAAKDIRIEAPIPGKSAIGIEVPNAEVAMVSLKEVLESKLNDRPDAKLLIGLGRNISGEAVLAELNKMPHLLVAGATGSGKSVCVNGIITSILMRAKPHEVKMMMIDPKMVELNVYNGIPHLLAPVVTDPKKASQALKKVVNEMERRYELFSHTGTRNIEGYNDYIKRANNEEGAKQPELPYIVVIVDELADLMMVASSDVEDSITRLSQMARAAGIHLIIATQRPSVDVITGVIKANIPSRIAFSVSSQTDSRTILDMGGAEKLLGRGDMLFLPVGANKPVRVQGAFLSDDEVEKVVDHVITQQKAQYQEEMIPEETTETHSEVTDELYDEAVELIVGMQTASVSMLQRRFRIGYTRAARLIDAMEERGVVGPYEGSKPREVLLSKEKYDELSS

binding: binds
B10: Serine protease AprX (protein, UniProt O31788 1-442)
chain: MFGYSMVQMVRANAHKLDWPLRETVLQLYKPFKWTPCFLHKFFETKLQNRKKMSVIIEFEEGCHETGFQMAGEVLQKEKRSKLKSRFNKINCCSAEVTPSALHSLLSECSNIRKVYLNREVKALLDTATEASHAKEVVRNGQTLTGKGVTVAVVDTGIYPHPDLEGRIIGFADMVNQKTEPYDDNGHGTHCAGDVASSGASSSGQYRGPAPEANLIGVKVLNKQGSGTLADIIEGVEWCIQYNEDNPDEPIDIMSMSLGGDALRYDHEQEDPLVRAVEEAWSAGIVVCVAAGNSGPDSQTIASPGVSEKVITVGALDDNNTASSDDDTVASFSSRGPTVYGKEKPDILAPGVNIISLRSPNSYIDKLQKSSRVGSQYFTMSGTSMATPICAGIAALILQQNPDLTPDEVKELLKNGTDKWKDEDPNIYGAGAVNAENSVPGQ
